PubChem BioAssay AID602196, INSERM – 2012
This is an unselected part of about 23,000 deposited reagents. 455 of all reagents (2%) were called active. 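Active includes both protection and sensitisation; some change values fall well beyond the stated -50 to +50 range.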 Unmarked entries are inactive. Not all columns of the deposit are shown. Not stated in the record: the amount of reagent.

- Assay: 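Knock-downs that protect lung cancer cells from cisplatin or sensitise them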
- System: human A549 lung cancer cells
- Reagents: siRNA pair against human genes
- Time to read-out: 48 h transfection before cisplatin; time from cisplatin to read-out not stated
- Challenge: cisplatin at a dose killing half of control-siRNA cells; exact dose and duration not given
- Read-out: 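Cisplatin cell death as a shift from the 50% death seen with control siRNA; siRNAs toxic or growth-blocking alone scored 0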
- Direction: two-siRNA summed score (-2 to +2): higher = both siRNAs protect from cisplatin killing; -2 means both sensitise; mean protection from cisplatin (shift in death): higher = protection from cisplatin killing
- Call rule: 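Each siRNA scores 0 if harmful alone by LDH or WST-1, otherwise +1 if it reduces and -1 if it increases cisplatin killing; a gene is active when both siRNAs agree (sum +2 or -2)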
- Meaning of the calls: active = both siRNAs shift cisplatin killing the same way; inactive = no consistent shift, or siRNA harmful alone

no.	target gene	two-siRNA summed score (-2 to +2)	mean protection from cisplatin (shift in death) (%)
1	CD300E	0	-7.1
2	OSBPL10	0	6.8
3	IRAK4	0	4.5
4	LOC402300	2 (active)	10.1
5	LOC441076	0	13.7
6	EYA4	0	7.2
7	IFNA14	0	11.7
8	IL33R	0	-10.6
9	EPM2A	-2 (active)	-16.6
10	LOC441752	0	12.2
11	LBP	0	0.9
12	CDC23	-1	-13.7
13	TAF7L	0	2
14	SLC16A3	0	0.9
15	KRT3	0	7.3
16	CARS1	0	3.5
17	RFLNB	0	4.4
18	ABHD10	1	18.7
19	LOC440686	0	13.8
20	LOC151760	0	10.3
21	LOC442039	1	11.8
22	CHRD	-1	-7.7
23	CSMD1	0	2.1
24	MAP3K1	0	1.8
25	LOC400852	0	7.4
26	OR4N5	0	-3.9
27	LOC390259	1	16.3
28	ZNHIT3	-1	-10.4
29	PITPNC1	0	3.5
30	LOC441610	0	25.6
31	DNASE2	0	-5.7
32	ADIPOQ	0	4.6
33	B3GNT4	0	-4.1
34	LOC391387	1	8.4
35	AFAP1L1	0	5.9
36	BTG4	0	0.3
37	HSPB9	0	5.3
38	TMPRSS5	0	-0.6
39	LOC389264	1	25.4
